From patent publication US9273006B2, “Anabolic compounds for treating and preventing bone loss diseases” (SYDDANSK UNIVERSITET, priority 2012, dated 2016)

Tested on: hMSC-TERT
Assay: DNA microarray analysis under osteogenic culture conditions
Type: cell-based, human
Settings: 25 μM, 24 hours after treatment

CNCCNS(=O)(=O)c1cccc2cnccc12 [H-8, N-[2-(methylamino)ethyl]-5-isoquinolinesulfonamide]
share of regulated genes that are skeletal development genes: 19%
